Results from PubChem BioAssay AID2685 (National Center for Advancing Translational Sciences (NCATS), 2010).
Some of the results follow. Further columns of the screen follow, without active or inactive calls. The list favours compounds with an active or inconclusive main result. Potencies come from curve fits of mixed quality, noted in brackets.

Assay: qHTS Assay for Lipid Storage Modulators in Drosophila S3 Cells;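 for cell number change: cells counted by Cell Tracker Red CMTPX staining in the red channel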
Settings: BODIPY lipid droplet fluorescence, 18-24 h; for cell number change: measured here: cell count max response, cells fed with added oleic acid
Source text: NIH Molecular Libraries Probe Production Centers Network [MLPCN] NIH Chemical Genomics Center [NCGC] MLPCN Grant: 1 R03 MH085686-01 Assay Submitter (PI): Beller, Mathias; Max-Planck-Institut fur Biophysikalische Chemie NCGC Assay Overview: Storing lipids as a reservoir for energy or the anabolism of elementary metabolites is a common feature of probably all cells and is conserved from bacteria to humans. The universal cellular lipid storage organelle is the so-called lipid storage droplet (LD). Although ubiquitous, LDs share a simple structure composed of a hydrophobic core that harbors the storage lipids, which is shielded by a droplet-specific phospholipid monolayer to which proteins are attached. The current model of LD biogenesis involves an incorporation of the lipid core into the membrane leaflets of the endoplasmic reticulum (ER) followed by a subsequent budding-like maturation of a LD, which ultimately pinches off. Once released, LD volume can increase by localized lipogenesis or fusion of existing droplet. Storage lipids are re-mobilized enzymatically by lipase activity. Lipase regulation in the adipocyte is heavily studied and involves multiple components including catecholamine signaling, the LD-associated proteins Perilipin and comparative gene identification (CGI-58) and at least two lipases named hormone sensitive lipase (HSL) and adipocyte triglyceride lipase (ATGL). LD regulation outside of the adipocyte is poorly understood and only few components are known. However, there is an urgent need to learn more about ectopic fat depots as mislocalized storage of lipids, for example in the liver or muscle, is an eminent health problem associated with insulin resistance or the metabolic syndrome. We developed a laser-scanning cytometer assay to enable 1,536-well screening and combined the results of the small molecules screen with an RNAi database based on lipid storage.
Triacsin C (Sigma-Aldrich T-4540), an inhibitor of long-chain fatty acyl CoA synthetase that blocks synthesis of triglycerides, was used as a positive control for lipid under-storage. A total of 23 nL of compound solution of different concentrations were transferred to the assay plates using a Kalypsys pin tool equipped with a 1,536-pin array containing 10-nL slotted pins (FP1S10, 0.457-mm diameter, 50.8 mm long; V&P Scientific). One microliter of oleic acid (400 uM) was added, and the plate was lidded with stainless steel rubber gasket lined lids containing pinholes. […] Fluorescence was detected by excitation of the fluorophores with a 488-nm laser on an Acumen Explorer (TTP Lab Tech). The total intensity in channel 2 (500-530 nm) reflected lipid droplet accumulation. Cells were detected using channel 3 (575-640 nm) with 5-um width and 100-um depth filters. The ratio of the number of objects in PMT channel 2 over the number of objects in PMT channel 3 was also calculated. Percent activity was computed relative to an internal control (100% inhibited lipid droplet deposition due to the presence of 20 uM Triacsin C), which was added to 32 wells/plate.

[1] = measured here: lipid fluorescence (Fed channel) AC50, cells fed with added oleic acid
[2] = measured here: cell number channel AC50, cells fed with added oleic acid

Compound	cell number change	AC50 [1]	AC50 [2]
O=C(c1cccs1)N(Cc1ccco1)c1nc(-c2ccc(F)cc2)cs1	-18.5%	29.1 µM [falling, single point]	
O=C(Nc1nc(-c2cc3ccccc3oc2=O)cs1)c1ccco1			2.91 µM [rising, single point]
CN(C(=O)c1ccc(NC(=O)Cc2cccc(NC(=O)C3CCCN(C(=O)C4CCCC4)C3)c2)cc1)C1CCCC1 (configuration not stated)	-15.3%	6.51 µM [rising, single point]	
O=C(Nc1nnc(-c2ccc3c(c2)OCCO3)o1)C1CCCCC1	35.9%	29.1 µM [rising, single point]	29.1 µM [rising, single point]
O=C(NCC(c1ccco1)N1CCc2ccccc2C1)C(=O)Nc1cc(F)ccc1F (configuration not stated)	31.5%	29.1 µM [rising, single point]	7.31 µM [rising, partial curve, poor fit]
CC(=O)N1CCc2cc(S(=O)(=O)CCC(=O)O)ccc21	-31.9%	0.0058 µM [falling, full curve]	1.16 µM [falling, full curve]
O=C(Cc1ccccc1F)NC1CCCc2ccccc21 (configuration not stated)		0.0517 µM [falling, full curve, poor fit]	
COc1ccccc1NS(=O)(=O)c1cc([N+](=O)[O-])ccc1N/N=C/c1sc(N2CCOCC2)nc1-c1ccccc1	-36.5%	0.291 µM [falling, full curve]	0.58 µM [falling, full curve]
NC(=O)C1CCN(c2oc(-c3ccc(F)cc3)nc2S(=O)(=O)c2ccccc2)CC1	-1.17%	9.2 µM [rising, partial curve, poor fit]	
COC(=O)c1cn(-c2ccccc2)nc1-c1ccncc1	0.905%	2.06 µM [rising, full curve]	
Oc1c(/C=C/C=C/C=Nc2ccccc2)sc(=S)n1Cc1ccccc1	19.7%		
COc1ccc(NC(=O)CSCc2ccc(C)cc2)cc1	42.6%		
CCn1c(CCC(N)=O)nnc1SCC(=O)c1cc(C)n(C2CC2)c1C	-24.6%		
Cc1cccc(N(C)C(=O)CCS(=O)(=O)c2cccc3nonc23)c1	6.15%		
COc1ccc(CCNC(=O)c2ccc(CN3CCC(Cc4ccccc4)CC3)cc2)cc1	8.32%	0.164 µM [rising, full curve, poor fit]	
Cn1cnc2c1c(=O)n(Cc1ccc(F)cc1Cl)c(=O)n2C	5.17%	4.11 µM [rising, full curve, poor fit]	
COC(=O)c1ccccc1Sc1c(/C=N/OC(=O)c2ccccc2)c(C(F)(F)F)nn1C		5.17 µM [falling, partial curve]	
O=C(NCc1ccco1)c1ccc(NS(=O)(=O)c2cccc(F)c2)cc1	-6.29%	6.31 µM [falling, single point]	
O=C(Nc1ccccc1)Nc1ccccc1C(=O)NCC1CC1	5.28%	1.64 µM [rising, partial curve, poor fit]	

Compound	cell number change	AC50 [1]	AC50 [2]
Cc1ccc2oc(-c3ccc(NC(=O)c4cccnc4)cc3)nc2c1	74.6%	14.6 µM [rising, partial curve]	11.6 µM [rising, partial curve]
CCCC1=C(C(=O)OCC)C(c2ccccc2OC)NC(=O)N1 (configuration not stated)	-0.32%	0.116 µM [falling, single point]	
COc1ccc2[nH]c(=O)c(C(c3nnnn3C3CCCC3)N3CCN(Cc4ccc5c(c4)OCO5)CC3)cc2c1 (configuration not stated)	29.8%		
COc1ccc(C2NC(=O)NC(O)(C(F)(F)F)C2C(=O)c2ccc(C)cc2)cc1 (configuration not stated)	5.36%	3.26 µM [falling, single point]	
COCCNC(=O)COc1cccc(Oc2ccccc2)c1	9.36%	0.231 µM [rising, full curve, poor fit]	
Cc1ccc(C(=O)N/C(=C\c2cn(C)c3ccccc23)C(=O)N2CCN(C)CC2)cc1	22.6%		6.51 µM [rising, single point]
CC1CN(C(=O)/C=C/c2ccc(SC(F)F)cc2)CC(C)O1 (configuration not stated)	19.4%	29.1 µM [rising, partial curve]	
O=C1c2cccc3c(Cl)ccc(c23)C(=O)N1O	4.61%		0.92 µM [falling, full curve, poor fit]
CCOc1ccc(C(C)NC(=O)C2CCCC2)cc1 (configuration not stated)		0.651 µM [falling, single point]	
C=CCNC(=S)NNC(=O)COc1ccc(Cl)cc1Cl	-26.9%	25.9 µM [falling, partial curve]	
COc1ccc(C2=Nn3c(nnc3-c3ccncc3)SC2)cc1OC	15.2%	2.59 µM [rising, partial curve]	
CCOC(=O)N1CCN(S(=O)(=O)c2cc(Br)cnc2N)CC1	-52.5%	4.61 µM [falling, full curve, poor fit]	0.291 µM [falling, partial curve, poor fit]
O=C(CN1CCN(Cc2ccccc2)CC1)NCc1ccc(Cl)cc1	-28%		0.058 µM [falling, full curve, poor fit]
COc1cccc2c1OCC1COc3c(c(=O)n(C)c(=O)n3C)C21 (configuration not stated)	18.6%		0.0058 µM [rising, full curve, poor fit]
O=C(NC(=S)NCCN1CCOCC1)c1ccc(Cl)cc1	-8.35%		
CCn1c2ccccc2c2cc(NC(=O)C(=O)N3CCOCC3)ccc21	0.716%	6.51 µM [falling, single point]	0.116 µM [falling, partial curve, poor fit]
CCOc1ccc2[nH]c3c(NCCC(C)C)ncnc3c2c1		20.6 µM [falling, partial curve]	0.092 µM [falling, partial curve, poor fit]
CCOC(=O)c1c(C)n(C)c2cc(-c3ccc(C)cc3)c(O)cc12	2.98%	0.82 µM [rising, full curve, poor fit]	
Cc1ccc(Nc2c3c(nc4ncnn24)CC(C)CC3)cc1 (configuration not stated)	16.6%		

Random excerpt: 3 entries already listed
Compound	cell number change	AC50 [1]	AC50 [2]
CCn1c2ccccc2c2cc(NC(=O)C(=O)N3CCOCC3)ccc21	0.716%	6.51 µM [falling, single point]	0.116 µM [falling, partial curve, poor fit]
Cc1ccc2oc(-c3ccc(NC(=O)c4cccnc4)cc3)nc2c1	74.6%	14.6 µM [rising, partial curve]	11.6 µM [rising, partial curve]
CCOc1ccc2[nH]c3c(NCCC(C)C)ncnc3c2c1		20.6 µM [falling, partial curve]	0.092 µM [falling, partial curve, poor fit]
